{"source": "paper PMC10741027", "about": "“Risk Assessment of Psychotropic Drugs on Mitochondrial Function Using In Vitro Assays” (Biomedicines, 2023)", "origin": "cited, not measured here", "key": {"CII-linked respiration": {"system": "CII-linked respiration", "settings": "read-out: CII-linked respiration IC50; isolated pig brain mitochondria; cited from earlier work"}, "CI-linked respiration": {"system": "CI-linked respiration", "settings": "read-out: CI-linked respiration IC50; pig brain mitochondria; cited from earlier work"}}, "data": [{"smiles": "CN1c2ccccc2C(NCCCCCCC(=O)O)c2ccc(Cl)cc2S1(=O)=O", "note": "(centres unmarked) [Tianeptine]", "values": [{"measurement": "IC50", "setting": "CII-linked respiration", "value": 67.4, "unit": "µM"}, {"measurement": "IC50", "setting": "CI-linked respiration", "value": 88.9, "unit": "µM"}]}]}
